Measurements as given in patent publication US20070117203A1, “Modulation of stem and progenitor cell growth by oscillatory fluid flow” (priority 2005, published 2007).

System: Marrow Stromal Cells (MSCs)
Experiment: Intracellular calcium response of MSCs to oscillatory fluid flow in the presence of calcium channel blockers
Details: 20 μM; L-type voltage-operated calcium channel blocker; control 67.1±11.2; not different from control

## COC(=O)C1=C(C)NC(C)=C(C(=O)OC)C1c1ccccc1[N+](=O)[O-] [nifidipine]
  percentage of cells that responded to OFF with a change in intracellular calcium: 77.7±8.3%
